# Some of the results follow. Further columns of the screen follow, without active or inactive calls. Most of these compounds were active or inconclusive in the main read-out, so they are no random draw. Potencies come from curve fits of mixed quality, noted in brackets.
# Assay: qHTS Assay for Lipid Storage Modulators in Drosophila S3 Cells;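 on cell number change: cells counted by Cell Tracker Red CMTPX staining in the red channel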
# Settings: BODIPY lipid droplet fluorescence, 18-24 h; for cell number change: measured here: cell count max response, cells fed with added oleic acid
# Method in brief: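 Laser-scanning cytometry quantifies lipid droplet accumulation (500–530 nm total intensity; droplet/cell object ratio) in oleic acid-fed (400 uM added) Drosophila S3 cells treated with a concentration series. 20 uM Triacsin C defined 100% inhibition.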
# [1] = measured here: cell number channel AC50, cells fed with added oleic acid
# [2] = measured here: lipid fluorescence (Fed channel) AC50, cells fed with added oleic acid
SMILES,cell number change [%],AC50 [1],AC50 [2]
N#CCCN(Cc1ccccc1)C(=O)c1nccnc1C(=O)O,-26.9,"3.26 µM [falling, full curve, poor fit]","3.66 µM [falling, full curve]"
CCOc1c(Cl)cc(C2NC(=O)NC(C)=C2C(=O)NCc2ccccc2)cc1OC (stereo not drawn),-2.09,–,"6.51 µM [rising, single point]"
O=c1[nH]cc(S(=O)(=O)N2CCOCC2)c(=O)[nH]1,-38.5,"4.61 µM [falling, full curve, poor fit]",–
CCOC(=O)N1CCN(C(=O)c2ccc3c(=O)n(-c4ccc(OC)cc4)c(=S)[nH]c3c2)CC1,-13.2,–,–
CCCCn1c2ccc(C)cc2c2nnc(SCCN3CCCCC3)nc21,-12,–,–
C/C(CC(=O)Nc1ccc2c(c1)OCCO2)=N\NC(=O)COc1cccc(C)c1,18.4,–,–
COc1ccc([N+](=O)[O-])cc1N(CC(O)CN(CC(C)C)CC(C)C)S(=O)(=O)c1ccc(C)cc1 (stereo not drawn),-16.3,–,"6.51 µM [rising, single point]"
CCc1nnc(NC(=O)C2CCCN2S(=O)(=O)c2ccc(C)cc2)s1 (stereo not drawn),-92.7,"29.1 µM [falling, single point]",–
COc1ccc(CNC(=O)COc2cc(O)c3c(c2)OC(C)(C)CC3=O)c(OC)c1,5.83,–,"20.6 µM [falling, single point]"
COc1ccccc1NC(=O)CC12CC3CC(CC(Br)(C3)C1)C2,6.67,–,"0.206 µM [falling, single point]"
COc1ccc(CCNC(=O)c2cc(-c3ccc(C)c(C)c3O)n[nH]2)cc1OC,-19.6,–,"20.6 µM [falling, single point]"
COc1cc(/C=N/O)ccc1Oc1ccc([N+](=O)[O-])cc1[N+](=O)[O-],1.93,–,"0.092 µM [falling, full curve, poor fit]"
O=C(Cn1ccc([N+](=O)[O-])n1)NCc1nc2ccccc2[nH]1,12.5,–,"0.461 µM [falling, single point]"
NC(=O)c1cc2ccccc2o/c1=N/NC(=O)c1cccc(Cl)c1,-9.15,–,–
COc1ccc(-c2noc(COc3ccc(C)c(C)c3)n2)cc1OC,–,–,"29.1 µM [rising, single point]"
Cc1cc(Br)ccc1SCC(=O)OCC(=O)Nc1ccc2[nH]c(=O)[nH]c2c1,-0.13,–,"3.26 µM [rising, partial curve, poor fit]"
COc1cc([N+](=O)[O-])ccc1NC(=O)N1CCCCCC1,7.03,–,"13 µM [falling, partial curve, poor fit]"
NC(=O)C1(c2ccccc2)CCCN1C(=O)c1ccccc1Br (stereo not drawn),28.1,–,"29.1 µM [rising, partial curve, poor fit]"
CSc1ccccc1NC(=O)c1ccc(Br)o1,-52.6,"11.6 µM [falling, partial curve]",–

# Molecules listed so far that contain a Cl atom, in the order listed:
SMILES,cell number change [%],AC50 [1],AC50 [2]
CCOc1c(Cl)cc(C2NC(=O)NC(C)=C2C(=O)NCc2ccccc2)cc1OC (stereo not drawn),-2.09,–,"6.51 µM [rising, single point]"
NC(=O)c1cc2ccccc2o/c1=N/NC(=O)c1cccc(Cl)c1,-9.15,–,–

# The listing continues:

SMILES,cell number change [%],AC50 [1],AC50 [2]
CC(C)CNC(=O)c1c(N)n(/N=C/c2ccccn2)c2nc3ccccc3nc12,–,"0.411 µM [rising, partial curve, poor fit]","0.411 µM [rising, partial curve, poor fit]"
CCOC(=O)c1[nH]c(C)c(C(=O)Nc2cccc(Cl)c2C)c1C,-12.5,–,"0.82 µM [rising, full curve, poor fit]"
O=[N+]([O-])c1cccc(C2=NC(c3ccccc3)CO2)c1 (stereo not drawn),-4.49,–,"0.146 µM [falling, full curve, poor fit]"
CN(C)c1cccc(C(=O)Nc2ccc(N3CCOCC3)cc2)c1,30.9,"0.461 µM [rising, partial curve]","2.06 µM [rising, partial curve]"
CS(=O)(=O)Nc1ccc(C(=O)NCCSc2ccc(Cl)cc2)cc1,-13.8,–,–
Cc1cc([N+](=O)[O-])nn1CC(=O)NCCc1c[nH]c2ccccc12,18.1,"0.0291 µM [rising, full curve, poor fit]","0.259 µM [rising, full curve, poor fit]"
CC(C)N(C)C1CCN(C(=O)Nc2ccc(Cl)cc2)CC1,-3.57,–,"25.9 µM [rising, single point]"
Cc1nn(C)c(NC(=O)c2ccccc2Cl)c1Br,9.72,–,–
O=C(C(NS(=O)(=O)c1cccc2nsnc12)c1ccccc1)N1CCN(c2ccccc2)CC1 (stereo not drawn),-114,–,"18.4 µM [falling, single point]"
CCOC(=O)c1ccccc1NC(=S)N1CCCCC1,0.732,–,"0.291 µM [rising, partial curve, poor fit]"
CCn1cc(C(=O)OCC(=O)c2cc(C)n(-c3ccccc3)c2C)c(=O)c2ccc(C)nc21,9.21,–,"14.6 µM [rising, single point]"
FC(F)(F)c1cccc(NCc2n[nH]c(=S)n2C2CCCCC2)c1,1.59,–,–
CC(=O)c1c(C)[nH]c(C(=O)NCc2cccc(Cl)c2)c1C,-2.03,"0.116 µM [rising, full curve, poor fit]","4.11 µM [rising, single point]"
Cc1ccc(CS(=O)(=O)CCC(=O)NCC2CCCO2)cc1 (stereo not drawn),-119,"29.1 µM [falling, single point]","29.1 µM [falling, partial curve]"
CC1CN(C(=O)CSc2nc(N)cc(N)n2)CC(C)O1 (stereo not drawn),-9.94,–,"0.103 µM [falling, full curve, poor fit]"
O=C(NC1CCCC1)C1CCCN(C(=O)Nc2ccccc2)C1 (stereo not drawn),20,–,"0.00461 µM [rising, full curve, poor fit]"
CC(C)(C)c1csc(NC(=O)c2ccc3nccnc3c2)n1,4.44,–,–
Cc1ccc(NC(=O)CCN2C(=O)c3ccccc3Sc3ncccc32)cc1,59.3,"29.1 µM [rising, single point]","29.1 µM [rising, single point]"
CCOC(=O)[C@H]1[C@H]2COc3ccc(OC)cc3[C@@H]2N2C(=O)[C@H](C)NC(=O)[C@@]12C,-1.81,–,"5.17 µM [falling, single point]"
